Earlier results, collected in article PMC8673317 (Journal of medicinal chemistry, 2021).

System: CD1 mice
Conditions: sc; cited from earlier work

Q: For CN1CC[C@]23c4c5ccc(O)c4O[C@H]2[C@@H](O)C=C[C@H]3[C@H]1C5 [morphine], which LD50 is on record?
A: The LD50 was 750 mg/kg.
